The other results are listed elsewhere or left out.
Experiments:
Assay in all cases: log2 fold change, soluble protein after heating vs DMSO (PISA); higher = thermal stabilisation; K562 cells, 10 uM, 30 min; active = over 0.2 and 3.5 SD of the protein, either way, in both replicates (recomputed)
[1] = compound: C1=CC=C(C=C1)[C@H](COC2=CC3=C(C=C2)NC(=O)N3)NC(=O)C4=CC=CN(C4=O)CC5=CC(=C(C=C5)F)F
Procedure, shortened: (§1)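 K562 cells at 2×10^6 cells/mL were treated with 10 μM compound for 30 min. Aliquots were heated for 3 min across 48°C-58°C, pooled, and extracted in PBS with 0.5% NP-40 at 4°C; soluble protein was the supernatant after 21,000xg for 90 min. Soluble protein was quantified by TMTpro 16plex LC-MS/MS with channel sums equalised, and reported as log2 fold change in thermal stability against DMSO controls, with values from duplicates.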

Protein sequences, listed by entry. Tags and fused reporters are not part of them. Lines headed by an entry give the natural chain unless they say otherwise; changes in a name come on top.
UniProt O75448: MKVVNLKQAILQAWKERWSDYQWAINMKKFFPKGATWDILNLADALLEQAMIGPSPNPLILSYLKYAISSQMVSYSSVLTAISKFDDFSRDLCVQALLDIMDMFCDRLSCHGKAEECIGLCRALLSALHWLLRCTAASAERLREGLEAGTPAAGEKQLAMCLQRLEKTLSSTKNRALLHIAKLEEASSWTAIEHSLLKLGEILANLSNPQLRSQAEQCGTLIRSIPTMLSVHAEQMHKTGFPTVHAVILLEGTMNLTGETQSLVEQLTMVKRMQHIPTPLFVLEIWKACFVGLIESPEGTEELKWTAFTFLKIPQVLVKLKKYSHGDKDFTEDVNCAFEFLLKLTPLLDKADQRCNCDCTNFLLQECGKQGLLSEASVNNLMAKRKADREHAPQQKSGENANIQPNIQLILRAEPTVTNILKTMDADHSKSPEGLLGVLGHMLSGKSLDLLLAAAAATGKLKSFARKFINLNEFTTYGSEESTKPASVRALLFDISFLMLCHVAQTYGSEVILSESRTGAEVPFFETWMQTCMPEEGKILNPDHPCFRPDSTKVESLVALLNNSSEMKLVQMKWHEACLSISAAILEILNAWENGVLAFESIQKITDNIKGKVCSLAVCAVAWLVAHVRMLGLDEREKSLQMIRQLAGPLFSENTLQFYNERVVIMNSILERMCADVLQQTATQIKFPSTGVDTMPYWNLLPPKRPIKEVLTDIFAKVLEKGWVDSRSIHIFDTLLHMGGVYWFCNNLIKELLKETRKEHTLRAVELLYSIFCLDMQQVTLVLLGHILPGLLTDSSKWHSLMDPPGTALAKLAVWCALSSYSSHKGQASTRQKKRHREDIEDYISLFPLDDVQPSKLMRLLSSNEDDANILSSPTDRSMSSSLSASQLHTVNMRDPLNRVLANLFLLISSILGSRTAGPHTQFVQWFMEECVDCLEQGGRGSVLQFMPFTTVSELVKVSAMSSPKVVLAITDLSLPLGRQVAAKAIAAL
UniProt Q08431: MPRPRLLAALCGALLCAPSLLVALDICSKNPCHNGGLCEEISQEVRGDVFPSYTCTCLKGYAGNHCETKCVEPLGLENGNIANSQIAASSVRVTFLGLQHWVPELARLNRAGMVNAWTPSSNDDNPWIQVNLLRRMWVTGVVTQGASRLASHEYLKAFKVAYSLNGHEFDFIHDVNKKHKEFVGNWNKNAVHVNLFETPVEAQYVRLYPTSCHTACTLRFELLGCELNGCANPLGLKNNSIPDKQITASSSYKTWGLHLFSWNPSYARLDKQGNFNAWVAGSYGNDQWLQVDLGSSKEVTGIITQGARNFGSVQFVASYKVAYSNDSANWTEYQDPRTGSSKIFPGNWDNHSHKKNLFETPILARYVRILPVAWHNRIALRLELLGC
UniProt Q15528: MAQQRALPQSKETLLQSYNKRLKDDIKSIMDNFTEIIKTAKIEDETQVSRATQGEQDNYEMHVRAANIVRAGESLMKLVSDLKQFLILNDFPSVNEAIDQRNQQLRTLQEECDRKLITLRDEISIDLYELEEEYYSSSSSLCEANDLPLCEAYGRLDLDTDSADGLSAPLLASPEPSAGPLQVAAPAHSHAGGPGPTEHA
UniProt P33992: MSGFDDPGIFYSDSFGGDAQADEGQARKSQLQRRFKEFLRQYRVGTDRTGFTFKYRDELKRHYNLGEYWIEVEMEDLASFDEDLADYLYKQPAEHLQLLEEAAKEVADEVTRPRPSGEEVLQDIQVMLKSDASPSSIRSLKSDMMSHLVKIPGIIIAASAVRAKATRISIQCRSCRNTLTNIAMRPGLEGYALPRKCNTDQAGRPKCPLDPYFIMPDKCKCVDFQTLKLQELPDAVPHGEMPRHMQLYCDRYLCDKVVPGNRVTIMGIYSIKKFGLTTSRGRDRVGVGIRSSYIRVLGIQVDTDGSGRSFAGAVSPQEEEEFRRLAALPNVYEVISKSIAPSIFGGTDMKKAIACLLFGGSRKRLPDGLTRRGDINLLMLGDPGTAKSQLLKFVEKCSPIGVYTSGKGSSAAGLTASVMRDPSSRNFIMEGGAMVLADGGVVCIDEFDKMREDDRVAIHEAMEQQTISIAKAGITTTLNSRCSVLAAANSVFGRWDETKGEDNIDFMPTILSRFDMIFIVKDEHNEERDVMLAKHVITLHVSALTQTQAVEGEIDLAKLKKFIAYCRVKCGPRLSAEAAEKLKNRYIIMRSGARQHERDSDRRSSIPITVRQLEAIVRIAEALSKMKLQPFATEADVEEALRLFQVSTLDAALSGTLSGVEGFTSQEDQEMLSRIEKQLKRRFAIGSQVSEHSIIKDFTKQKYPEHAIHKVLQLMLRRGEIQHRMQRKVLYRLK
UniProt Q6P9B6: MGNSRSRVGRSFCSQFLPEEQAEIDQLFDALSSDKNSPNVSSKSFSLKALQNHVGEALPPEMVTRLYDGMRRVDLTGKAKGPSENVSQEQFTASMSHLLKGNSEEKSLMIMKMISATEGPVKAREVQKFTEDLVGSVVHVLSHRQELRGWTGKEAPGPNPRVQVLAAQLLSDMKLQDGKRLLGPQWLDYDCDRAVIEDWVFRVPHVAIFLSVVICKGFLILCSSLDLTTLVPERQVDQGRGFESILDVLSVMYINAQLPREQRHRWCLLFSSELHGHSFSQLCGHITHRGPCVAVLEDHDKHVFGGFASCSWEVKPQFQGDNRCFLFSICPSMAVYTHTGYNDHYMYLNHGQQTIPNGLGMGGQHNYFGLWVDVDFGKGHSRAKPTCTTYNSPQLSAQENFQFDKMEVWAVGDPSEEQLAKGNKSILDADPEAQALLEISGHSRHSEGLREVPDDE
UniProt Q8NI22: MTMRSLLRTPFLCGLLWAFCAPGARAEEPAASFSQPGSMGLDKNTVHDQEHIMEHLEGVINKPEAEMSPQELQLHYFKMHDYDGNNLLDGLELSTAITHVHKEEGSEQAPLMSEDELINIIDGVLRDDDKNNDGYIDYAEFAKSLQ
UniProt Q9GZU1, whole entry, looked up: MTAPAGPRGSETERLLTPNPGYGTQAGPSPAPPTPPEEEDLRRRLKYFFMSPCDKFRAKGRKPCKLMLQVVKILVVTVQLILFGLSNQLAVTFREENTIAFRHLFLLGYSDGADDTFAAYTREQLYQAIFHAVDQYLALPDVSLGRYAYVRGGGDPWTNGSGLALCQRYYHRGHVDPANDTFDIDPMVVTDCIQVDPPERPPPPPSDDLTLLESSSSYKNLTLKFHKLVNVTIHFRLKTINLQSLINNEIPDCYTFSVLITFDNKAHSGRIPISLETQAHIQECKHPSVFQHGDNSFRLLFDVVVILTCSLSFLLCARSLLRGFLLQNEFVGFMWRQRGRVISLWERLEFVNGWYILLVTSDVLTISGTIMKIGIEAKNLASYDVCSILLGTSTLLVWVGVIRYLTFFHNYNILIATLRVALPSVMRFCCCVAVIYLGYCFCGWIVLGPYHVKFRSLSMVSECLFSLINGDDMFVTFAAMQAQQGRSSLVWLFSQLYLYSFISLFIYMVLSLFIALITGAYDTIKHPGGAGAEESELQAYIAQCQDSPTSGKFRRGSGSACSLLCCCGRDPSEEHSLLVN
UniProt Q9NR56: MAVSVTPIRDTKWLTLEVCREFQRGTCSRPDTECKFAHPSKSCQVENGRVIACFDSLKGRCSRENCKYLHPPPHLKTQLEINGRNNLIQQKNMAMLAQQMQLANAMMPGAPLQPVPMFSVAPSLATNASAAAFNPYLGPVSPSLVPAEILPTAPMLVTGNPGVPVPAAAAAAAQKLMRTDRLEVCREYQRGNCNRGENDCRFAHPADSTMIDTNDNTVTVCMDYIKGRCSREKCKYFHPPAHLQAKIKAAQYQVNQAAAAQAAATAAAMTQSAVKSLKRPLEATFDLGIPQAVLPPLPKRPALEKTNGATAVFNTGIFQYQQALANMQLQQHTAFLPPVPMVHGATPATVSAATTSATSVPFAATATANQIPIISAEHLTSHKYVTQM
UniProt P25205: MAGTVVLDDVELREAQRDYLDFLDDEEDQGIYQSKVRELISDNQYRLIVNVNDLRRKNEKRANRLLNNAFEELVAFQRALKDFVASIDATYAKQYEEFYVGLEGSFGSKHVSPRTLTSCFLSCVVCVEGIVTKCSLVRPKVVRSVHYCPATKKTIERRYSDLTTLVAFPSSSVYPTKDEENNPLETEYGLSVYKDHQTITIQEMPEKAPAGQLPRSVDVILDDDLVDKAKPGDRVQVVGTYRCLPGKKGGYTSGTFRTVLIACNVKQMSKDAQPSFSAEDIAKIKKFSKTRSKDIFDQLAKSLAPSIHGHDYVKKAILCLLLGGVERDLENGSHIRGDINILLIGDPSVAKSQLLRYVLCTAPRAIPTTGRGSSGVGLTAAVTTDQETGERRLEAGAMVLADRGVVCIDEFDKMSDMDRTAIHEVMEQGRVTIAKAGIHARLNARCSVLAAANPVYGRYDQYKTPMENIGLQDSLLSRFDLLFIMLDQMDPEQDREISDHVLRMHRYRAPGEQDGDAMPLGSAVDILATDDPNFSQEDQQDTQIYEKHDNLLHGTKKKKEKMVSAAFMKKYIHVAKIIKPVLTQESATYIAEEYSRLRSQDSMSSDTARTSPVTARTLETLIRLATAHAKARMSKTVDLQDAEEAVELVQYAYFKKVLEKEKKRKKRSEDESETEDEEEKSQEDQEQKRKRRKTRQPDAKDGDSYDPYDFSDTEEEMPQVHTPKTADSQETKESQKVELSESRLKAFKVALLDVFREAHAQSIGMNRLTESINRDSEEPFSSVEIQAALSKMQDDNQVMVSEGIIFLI
UniProt Q9H944: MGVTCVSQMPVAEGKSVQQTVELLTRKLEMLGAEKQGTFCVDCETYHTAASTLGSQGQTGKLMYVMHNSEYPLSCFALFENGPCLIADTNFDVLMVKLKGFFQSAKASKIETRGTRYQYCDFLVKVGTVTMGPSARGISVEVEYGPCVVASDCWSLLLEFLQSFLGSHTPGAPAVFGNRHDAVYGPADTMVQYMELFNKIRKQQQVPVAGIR
UniProt O95140: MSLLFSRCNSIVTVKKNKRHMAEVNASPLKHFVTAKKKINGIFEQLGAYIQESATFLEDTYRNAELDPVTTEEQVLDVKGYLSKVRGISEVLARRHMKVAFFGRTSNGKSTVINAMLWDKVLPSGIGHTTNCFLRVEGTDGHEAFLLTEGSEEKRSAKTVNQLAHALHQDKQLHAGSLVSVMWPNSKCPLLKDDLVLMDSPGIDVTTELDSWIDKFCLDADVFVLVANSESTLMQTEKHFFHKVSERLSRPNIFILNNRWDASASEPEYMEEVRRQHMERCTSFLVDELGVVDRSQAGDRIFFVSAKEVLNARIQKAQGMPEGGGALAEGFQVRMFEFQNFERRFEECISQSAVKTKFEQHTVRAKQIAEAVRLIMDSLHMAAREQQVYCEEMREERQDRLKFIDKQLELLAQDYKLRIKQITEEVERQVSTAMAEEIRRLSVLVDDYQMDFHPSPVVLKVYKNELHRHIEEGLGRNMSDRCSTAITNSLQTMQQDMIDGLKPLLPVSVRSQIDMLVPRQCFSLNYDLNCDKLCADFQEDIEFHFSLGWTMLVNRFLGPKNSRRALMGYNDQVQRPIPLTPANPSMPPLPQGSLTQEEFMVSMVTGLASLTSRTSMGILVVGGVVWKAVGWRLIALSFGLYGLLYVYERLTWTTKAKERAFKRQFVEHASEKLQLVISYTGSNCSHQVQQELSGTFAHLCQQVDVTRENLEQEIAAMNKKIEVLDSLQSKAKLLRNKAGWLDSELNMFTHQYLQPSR
UniProt P51608, whole entry, looked up: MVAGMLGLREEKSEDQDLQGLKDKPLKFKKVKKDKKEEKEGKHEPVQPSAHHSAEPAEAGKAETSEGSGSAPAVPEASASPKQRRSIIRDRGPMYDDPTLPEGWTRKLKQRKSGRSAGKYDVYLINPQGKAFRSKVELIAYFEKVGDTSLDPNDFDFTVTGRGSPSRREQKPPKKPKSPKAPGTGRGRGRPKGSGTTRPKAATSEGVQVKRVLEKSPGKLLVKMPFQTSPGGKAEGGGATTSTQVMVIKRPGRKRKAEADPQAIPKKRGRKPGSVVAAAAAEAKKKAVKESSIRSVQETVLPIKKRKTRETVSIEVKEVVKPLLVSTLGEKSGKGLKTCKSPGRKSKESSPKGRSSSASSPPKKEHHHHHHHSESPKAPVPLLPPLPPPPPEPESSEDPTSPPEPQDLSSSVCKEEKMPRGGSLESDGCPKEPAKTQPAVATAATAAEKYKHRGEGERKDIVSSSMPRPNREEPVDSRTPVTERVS
UniProt Q00266: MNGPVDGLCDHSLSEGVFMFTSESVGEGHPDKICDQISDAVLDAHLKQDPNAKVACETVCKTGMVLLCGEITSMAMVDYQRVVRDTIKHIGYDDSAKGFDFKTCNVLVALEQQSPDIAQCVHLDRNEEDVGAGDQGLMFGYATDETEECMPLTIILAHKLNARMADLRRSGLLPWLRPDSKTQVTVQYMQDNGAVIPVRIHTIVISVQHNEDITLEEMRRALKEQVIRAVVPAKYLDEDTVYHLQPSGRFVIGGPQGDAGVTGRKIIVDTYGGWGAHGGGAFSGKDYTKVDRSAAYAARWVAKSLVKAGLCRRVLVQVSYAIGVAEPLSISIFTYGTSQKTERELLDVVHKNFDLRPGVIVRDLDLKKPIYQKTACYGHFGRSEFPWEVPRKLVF

[2] = compound: CC1=C(SC2=C1C(=N[C@H](C3=NN=C(N32)C)CC(=O)N)C4=CC=C(C=C4)Cl)C
Procedure, shortened: as §1

[3] = compound: CC1=C2C(=CC=C1)N=C(N(C2=O)C3=CC=CC=C3C)CN4C=NC5=C(N=CN=C54)N
Procedure, shortened: as §1

[4] = compound: Cc1sc2c(c1C)C(c1ccc(Cl)cc1)=N[C@@H](CC(=O)OC(C)(C)C)c1nnc(C)n1-2
Procedure, shortened: as §1

[5] = compound: c1ccc([C@@H]2C[C@H]2NC2CCNCC2)cc1
Procedure, shortened: as §1

Measured: log2 fold change

MFN1 (UniProt Q8IWA4)
inactive: [1] 0.058 | [2] 0.042 | [3] 0.05 | [4] 0.07 | [5] -0.01

MAX (UniProt P61244)
inactive: [1] 0.065 | [2] -0.023 | [3] -0.099 | [4] -0.029 | [5] 0.072

METTL3 (UniProt Q86U44)
inactive: [1] -0.015 | [2] 0.074 | [3] 0.034 | [4] -0.04 | [5] -0.024

MED24 (UniProt O75448)
inactive: [1] 0.041 | [2] 0.026 | [3] 0.027 | [4] -0.016 | [5] 0.038

MCM7 (UniProt P33993)
inactive: [1] -0.03 | [2] 0.045 | [3] -0.013 | [4] -0.013 | [5] -0.067

MFGE8 (UniProt Q08431)
inactive: [1] 0.005 | [2] -0.051 | [3] -0.091 | [4] -0.068 | [5] -0.129

MED22 (UniProt Q15528)
inactive: [1] 0.013 | [2] 0.065 | [3] 0.013 | [4] 0.195 | [5] 0

MBD2 (UniProt Q9UBB5)
inactive: [1] 0.078 | [2] -0.07 | [3] 0.003 | [4] 0.209 | [5] 0.04

MCM5 (UniProt P33992)
inactive: [1] -0.032 | [2] 0.019 | [3] -0.035 | [4] -0.022 | [5] -0.009

MEAK7 (UniProt Q6P9B6)
inactive: [1] -0.009 | [2] 0.051 | [3] 0.042 | [4] -0.009 | [5] -0.048

METTL26 (UniProt Q96S19)
inactive: [1] 0.047

MCFD2 (UniProt Q8NI22)
inactive: [1] -0.043 | [2] 0.027 | [3] -0.192 | [4] 0.022 | [5] 0.122

MCOLN1 (UniProt Q9GZU1)
inactive: [1] -0.03

2 neighbouring entries from above:
METTL26 (UniProt Q96S19)
inactive: [1] 0.047

MCFD2 (UniProt Q8NI22)
inactive: [1] -0.043 | [2] 0.027 | [3] -0.192 | [4] 0.022 | [5] 0.122

Next results follow.

MCM6 (UniProt Q14566)
inactive: [1] -0.013 | [2] 0.042 | [3] 0.03 | [4] -0.011 | [5] -0.027

MBNL1 (UniProt Q9NR56)
inactive: [1] -0.015 | [2] -0.063 | [3] -0.13 | [4] 0.037 | [5] 0.051

MCM3 isoform 2 (UniProt P25205)
inactive: [1] -0.011 | [2] -0.015 | [3] 0.026 | [4] -0.012 | [5] -0.015

MED20 (UniProt Q9H944)
inactive: [1] -0.026 | [2] 0.125 | [3] -0.017 | [4] -0.022 | [5] 0.015

MEMO1 (UniProt Q9Y316)
inactive: [1] -0.084 | [2] 0.046 | [3] -0.014 | [4] 0.005 | [5] -0.011

MAVS (UniProt Q7Z434)
inactive: [1] 0.005 | [2] 0.037 | [3] 0.016 | [4] -0.034 | [5] 0.021

MBOAT1 (UniProt Q6ZNC8)
inactive: [1] 0.06 | [2] 0.007 | [3] 0.05 | [4] -0.214 | [5] 0.025

MDN1 (UniProt Q9NU22)
inactive: [1] -0.08 | [2] 0.041 | [3] 0.059 | [4] -0.054 | [5] -0.049

METAP1 (UniProt P53582)
inactive: [1] -0.028 | [2] -0.031 | [3] 0.042 | [4] -0.029 | [5] 0.015

MFN2 (UniProt O95140)
inactive: [1] 0.01 | [2] 0.038 | [3] 0.013 | [4] -0.026 | [5] 0.001

MECP2 isoform 2 (UniProt P51608)
inactive: [1] 0.024 | [2] -0.247 | [3] -0.144 | [4] 0.223 | [5] -0.011

MAT1A (UniProt Q00266)
inactive: [1] 0.039 | [2] -0.061 | [3] -0.014 | [4] 0.029 | [5] 0.114

MFSD4B (UniProt Q5TF39)
inactive: [1] 0.079 | [2] -0.022 | [3] -0.083 | [4] 0 | [5] -0.083
